{"source": "patent US12291504B2", "about": "(University of Pittsburgh—Of the Commonwealth System of …, priority 2018, dated 2025)", "key": {"[1]": {"target": "T1, SULT2A1 (Homo sapiens, UniProt Q06520)", "T1 sequence (Q06520 1-285)": "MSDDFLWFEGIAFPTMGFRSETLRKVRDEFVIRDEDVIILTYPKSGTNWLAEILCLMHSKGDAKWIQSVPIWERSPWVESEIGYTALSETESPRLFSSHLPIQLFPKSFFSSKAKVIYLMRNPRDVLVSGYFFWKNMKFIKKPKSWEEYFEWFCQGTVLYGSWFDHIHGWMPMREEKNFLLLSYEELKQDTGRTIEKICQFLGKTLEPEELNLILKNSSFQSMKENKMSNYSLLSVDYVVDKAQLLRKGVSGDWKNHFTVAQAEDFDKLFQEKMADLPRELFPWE", "experiment": "SULT2A1 inhibition test", "format": "biochemical", "settings": "at 50 uM"}, "[2]": {"target": "T2, SULT1E1 (Homo sapiens, UniProt P49888)", "T2 sequence (P49888 1-294)": "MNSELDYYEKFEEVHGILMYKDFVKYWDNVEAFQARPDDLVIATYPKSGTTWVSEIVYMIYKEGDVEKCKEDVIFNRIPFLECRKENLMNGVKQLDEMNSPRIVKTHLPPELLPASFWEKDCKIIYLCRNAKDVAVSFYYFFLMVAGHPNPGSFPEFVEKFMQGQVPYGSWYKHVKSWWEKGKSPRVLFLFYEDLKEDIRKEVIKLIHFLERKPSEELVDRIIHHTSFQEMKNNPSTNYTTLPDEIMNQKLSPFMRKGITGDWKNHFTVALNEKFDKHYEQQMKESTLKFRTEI", "experiment": "SULT1E1 inhibition test", "format": "biochemical", "settings": "at 50 uM"}}, "note": "For at least one compound, name, drawing or mass did not settle the structure."}
{"smiles": "CC(C)Cc1ccc2cc(CCC(N)=O)cnc2n1", "note": "[Compound 25]", "values": [{"measurement": "inhibition of SULT2A1", "setting": "[1]", "result": "no inhibition was detected"}, {"measurement": "inhibition of SULT1E1", "setting": "[2]", "result": "no inhibition was detected"}]}
